Laboratory results: PMC7921410, “Structure of mammalian Mediator complex reveals Tail module architecture and interaction with a conserved core” (Nature Communications, 2021)
Results are given in words; binding and its absence hold for the method and conditions named. Some results given as binding are weak or reduced against the parent protein; the word gives no strength.

Chains of the proteins cited; added tags and fusions are not shown.
UniProt A2ABV5: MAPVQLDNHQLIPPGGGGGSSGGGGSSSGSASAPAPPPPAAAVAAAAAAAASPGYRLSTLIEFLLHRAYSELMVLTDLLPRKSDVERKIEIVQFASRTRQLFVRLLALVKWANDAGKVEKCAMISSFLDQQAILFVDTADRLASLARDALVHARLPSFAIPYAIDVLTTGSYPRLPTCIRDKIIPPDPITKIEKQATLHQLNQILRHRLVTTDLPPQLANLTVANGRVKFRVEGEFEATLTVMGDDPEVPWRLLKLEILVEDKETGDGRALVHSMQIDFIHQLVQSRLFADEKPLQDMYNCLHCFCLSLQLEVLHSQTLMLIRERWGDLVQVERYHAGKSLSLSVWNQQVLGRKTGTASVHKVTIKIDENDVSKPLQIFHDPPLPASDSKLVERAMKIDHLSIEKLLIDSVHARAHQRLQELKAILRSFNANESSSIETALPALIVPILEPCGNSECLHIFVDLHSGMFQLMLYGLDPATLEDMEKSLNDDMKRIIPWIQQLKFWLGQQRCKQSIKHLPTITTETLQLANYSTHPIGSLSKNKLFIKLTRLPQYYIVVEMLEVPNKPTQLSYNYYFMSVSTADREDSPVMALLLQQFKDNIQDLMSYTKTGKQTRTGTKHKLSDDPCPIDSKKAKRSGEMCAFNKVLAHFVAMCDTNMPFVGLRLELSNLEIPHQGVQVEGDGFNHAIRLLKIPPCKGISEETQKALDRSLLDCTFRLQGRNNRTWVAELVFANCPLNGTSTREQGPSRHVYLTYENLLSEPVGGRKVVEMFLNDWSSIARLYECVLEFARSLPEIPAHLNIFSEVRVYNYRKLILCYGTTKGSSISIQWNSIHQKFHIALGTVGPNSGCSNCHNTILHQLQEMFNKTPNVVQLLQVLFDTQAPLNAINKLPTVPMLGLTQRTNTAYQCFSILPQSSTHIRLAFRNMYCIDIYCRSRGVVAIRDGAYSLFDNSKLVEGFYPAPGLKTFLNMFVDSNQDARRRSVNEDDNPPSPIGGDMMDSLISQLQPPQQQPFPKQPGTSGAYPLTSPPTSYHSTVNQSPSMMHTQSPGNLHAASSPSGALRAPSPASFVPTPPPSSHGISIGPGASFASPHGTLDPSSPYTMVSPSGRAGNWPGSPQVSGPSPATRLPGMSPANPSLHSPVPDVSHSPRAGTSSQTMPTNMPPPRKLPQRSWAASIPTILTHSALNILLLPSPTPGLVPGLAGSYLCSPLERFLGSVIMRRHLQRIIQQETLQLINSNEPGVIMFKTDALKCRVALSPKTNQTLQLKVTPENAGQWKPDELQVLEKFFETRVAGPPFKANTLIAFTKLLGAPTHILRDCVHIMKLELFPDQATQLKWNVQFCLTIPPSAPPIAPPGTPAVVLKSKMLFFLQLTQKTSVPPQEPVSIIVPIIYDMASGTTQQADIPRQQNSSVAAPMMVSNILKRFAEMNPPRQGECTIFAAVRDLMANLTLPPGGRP

B1: MED27 (natural protein, mouse (Mus musculus; endogenous in CH12), UniProt Q9DB40 1-311, looked up)
chain: MADVLSVGVNLEAFSQAISAIQALRSSVSRVFDCLKDGMRNKETLEGREKAFIANFQDNLHSVNRDLNELERLSNLVGKPSENHPLHNSGLLSLDPVQDKTPLYSQLLQAYKWSNKLQYHAGLASGLLNQQSLKRSANQMGVSAKRRPKAQPTTLVLPPQYVDDVISRIDRMFPEMSIHLSRPNGTSAMLLVTLGKVLKVIVVMRSLFIDRTIVKGYNESVYTEDGKLDIWSKSSYQVFQKVTDHATTALLHYQLPQMPDVVVRSFMTWLRSYIKLFQAPCQRCGKFLQDGLPPTWRDFRTLEAFHDTCRQ
notes: MED27, Mus musculus, endogenous upper Tail subunit of Mediator; source: endogenous, CH12 mouse B lymphoma nuclear extract; immunopurified as part of Mediator (FLAG M2 agarose, FLAG peptide elution)
B2: MED29 (natural protein, mouse (Mus musculus; endogenous in CH12), UniProt Q9DB91 1-199, looked up)
chain: MAAPQPQAAAVSSASGVSGPGSAGGPGPQQQPQPTQLVGSAQSGLLQQQQQDFDPVQRYKMLIPQLKESLQTLMKVAAQNLIQNTNIDNGQKSSDAPLQRFDKCLEEFYALCDQLELCLRLAHECLSQSCDSAKHSPTLVPTATKPDAVQPDSLPYPQYLAVIKAQITCAKDIHTALLDCANKVTGKTTAPSTGPGGSL
notes: MED29, Mus musculus, endogenous upper Tail subunit of Mediator; source: endogenous, CH12 mouse B lymphoma nuclear extract; immunopurified as part of Mediator (FLAG M2 agarose, FLAG peptide elution)
B3: MED17 (natural protein, mouse (Mus musculus; endogenous in CH12), UniProt Q8VCD5 1-649, looked up)
chain: MSGVRAVRISIESACEKQVQEVGLDGTETYLQPLSMSQNLARLAQRIDFSQGSGSEEEEAAGPDGDAPDWGGAGADQDDEEGLVKFQPSLWPWDSVRNNLRSALTEMCVLYDVLSIVRDKKFMTLDPVSQDALPPKQSPQTLQLISKKKSLAGAAQILLKGAERLTKSVAENQENKLQRDFNSELLRLRQHWKLRKVGDKILGDLSYRSAGSLFPHHGTFEVIKNTDIDLDKKIPEDYCPLDVQIPSDLEGSAYIKVSIQKQAPDIGDLGTVNLFKRPLPKSKPGSPHWQTKLEAAQNVLLCKEIFAQLSREAVQIKSQIPHIVVKNQIISQPFPSLQLSISLCHSSDDKKSQKCAAEKPGQEDHLYVLEHNLHLLIREFHKQTLSSIVMPHPASAPFGHKRMRLSGPQAFDKNEINSIQSTEGLLEKIIKQAKHIFLRSRTAATIDSLASRIEDPQIQAHWSNINDVYESSVKVLITSQGYEQICKSIQLQLNIGVEQVRVVHRDGRVIMLSHQEQELQDFLLSQMSQHQVHAVQQLAKVMGWQVLSFSNHVGLGPIESIGNASAITVASPSGDYAISVRNGPESGSKIMVQFPRNQCKDLPKSDVLQDSKWSHLRGPFKEVQWNKMEGRNFVYKMELLMSALSPCLL
notes: MED17, Mus musculus, endogenous Head module scaffold subunit of Mediator; source: endogenous, CH12 mouse B lymphoma nuclear extract; immunopurified as part of Mediator (FLAG M2 agarose, FLAG peptide elution)

Target: MED14 (mouse (Mus musculus; endogenous in CH12)) (UniProt A2ABV5)
Assay: cryo-EM structure; endogenous mouse Mediator immunopurified from CH12 nuclear extract through 3×FLAG-MED19 or 3×FLAG-MED25; eluted in 50 mM HEPES pH 7.9, 100 mM KCl, 5% glycerol, 1 mM EDTA, 0.005% NP-40; map at 4.0 Å overall, focused refinement of the MED1 and knob/hook ends (6-10 Å); both purified

| Binder | binding |
| --- | --- |
| B1 | binds |
| B2 | binds |
| B3 | binds |
